# Measurements reported in the supplement of paper PMC8728848.
# The other results are listed elsewhere or left out.
# Experiments:
# Assay in all cases: glycan array binding signal (z-score within array); higher = stronger binding
# Details in all cases: glycan notation: IUPAC condensed, linker removed
# [1] = biological target: Gal3S(b1-3)[Fuc(a1-4)]GlcNAc
# In short: (§1)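 The binding signal is a Z-score computed within each array. Data were drawn from 3228 arrays in the Consortium for Functional Glycomics database, restricted to those with a known protein sequence. Scores were averaged over arrays of the same protein sequence at different concentrations or buffers, and over linkers, and negative values can be taken as non-binding.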
# [2] = biological target: Gal3S(b1-4)Glc
# In short: as §1
# [3] = biological target: Gal3S(b1-4)Glc6S
# In short: as §1
# [4] = biological target: Gal3S(b1-4)GlcNAc
# In short: as §1
# [5] = biological target: Gal3S(b1-4)[Fuc(a1-3)]Glc6S
# In short: as §1
# [6] = biological target: Gal3S(b1-4)[Fuc(a1-3)]GlcNAc
# In short: as §1
# [7] = biological target: Gal3S(b1-4)[Fuc(a1-3)]GlcNAc6S
# In short: as §1
# [8] = biological target: Gal3S4S(b1-4)GlcNAc
# In short: as §1
# [9] = biological target: Gal3S6S(b1-4)GlcNAc
# In short: as §1
# [10] = biological target: Gal3S6S(b1-4)GlcNAc6S
# In short: as §1
# [11] = biological target: Gal4S(b1-4)GlcNAc
# In short: as §1
# [12] = biological target: Gal4S6S(b1-4)GlcNAc
# In short: as §1
# [13] = biological target: Gal6P(b1-4)GlcNAc
# In short: as §1
# [14] = biological target: Gal6S(b1-3)GlcNAc
# In short: as §1
# [15] = biological target: Gal6S(b1-3)GlcNAc6S
# In short: as §1
# [16] = biological target: Gal6S(b1-4)Glc
# In short: as §1
# [17] = biological target: Gal6S(b1-4)Glc6S
# In short: as §1
# [18] = biological target: Gal6S(b1-4)GlcNAc
# In short: as §1
# [19] = biological target: Gal6S(b1-4)GlcNAc6S
# In short: as §1
# [20] = biological target: GalNAc(a1-3)Gal
# In short: as §1
# [21] = biological target: GalNAc(a1-3)GalNAc
# In short: as §1
# [22] = biological target: GalNAc(a1-3)GalNAc(b1-3)Gal(a1-4)Gal(b1-4)Glc
# In short: as §1
# [23] = biological target: GalNAc(a1-3)GalNAc(b1-3)Gal(a1-4)Gal(b1-4)GlcNAc
# In short: as §1
# [24] = biological target: GalNAc(b1-3)Gal
# In short: as §1
# [25] = biological target: GalNAc(b1-3)Gal(a1-4)Gal(b1-4)GlcNAc
# In short: as §1
# [26] = biological target: GalNAc(b1-3)Gal(a1-4)Gal(b1-4)GlcNAc(b1-3)Gal(b1-4)Glc
# In short: as §1
# [27] = biological target: GalNAc(b1-3)Gal(a1-6)Gal(b1-4)Glc
# In short: as §1
# [28] = biological target: GalNAc(b1-3)GalNAc
# In short: as §1
# [29] = biological target: GalNAc(b1-3)GlcNAc
# In short: as §1
# [30] = biological target: GalNAc(b1-4)Gal(b1-4)Glc
# In short: as §1
# [31] = biological target: GalNAc(b1-4)GlcNAc
# In short: as §1
# [32] = biological target: GalNAc(b1-4)GlcNAc(b1-2)Man
# In short: as §1
# [33] = biological target: GalNAc(b1-4)GlcNAc(b1-2)Man(a1-3)[GalNAc(b1-4)GlcNAc(b1-2)Man(a1-6)]Man(b1-4)GlcNAc(b1-4)GlcNAc
# In short: as §1
# [34] = biological target: GalNAc(b1-4)GlcNAc(b1-3)GalNAc(b1-4)GlcNAc
# In short: as §1
# [35] = biological target: GalNAc(b1-4)GlcNAc6S
# In short: as §1
# [36] = biological target: GalNAc(b1-6)GalNAc
# In short: as §1
# [37] = biological target: GalNAc3S(b1-4)GlcNAc
# In short: as §1
# [38] = biological target: GalNAc3S(b1-4)GlcNAc3S
# In short: as §1
# [39] = biological target: GalNAc3S(b1-4)[Fuc(a1-3)]GlcNAc
# In short: as §1
# [40] = biological target: GalNAc4S6S(b1-4)GlcNAc
# In short: as §1
# [41] = biological target: GalNAc6S(b1-4)GlcNAc
# In short: as §1
# [42] = biological target: Glc(a1-4)Glc
# In short: as §1
# [43] = biological target: Glc(a1-4)Glc(a1-4)Glc(a1-4)Glc
# In short: as §1
# [44] = biological target: Glc(a1-6)Glc(a1-6)Glc
# In short: as §1
# [45] = biological target: Glc(a1-6)Glc(a1-6)Glc(a1-6)Glc
# In short: as §1
binder,measurement,setting,value
"CD34 (Homo sapiens), P28906 (protein) MGSSHHHHHHSSGLVPRGSHMSTSLATSPTKPYTSSSPILSDIKAEIKCSGIREVKLTQGICLEQNKTSSCAEFKKDRGEGLARVLCGEEQADADAGAQVCSLLLAQSEVRPQCLLLVLANRTEISSKLQLMKKHQSDLKKLGILDFTEQDVASHQSYSQKT",glycan array binding signal (z-score),[1],1.34
same,glycan array binding signal (z-score),[2],1.83
same,glycan array binding signal (z-score),[3],-0.078
same,glycan array binding signal (z-score),[4],-0.601
same,glycan array binding signal (z-score),[5],0.197
same,glycan array binding signal (z-score),[6],0.867
same,glycan array binding signal (z-score),[7],1.44
same,glycan array binding signal (z-score),[8],0.677
same,glycan array binding signal (z-score),[9],0.324
same,glycan array binding signal (z-score),[10],1.42
same,glycan array binding signal (z-score),[11],-0.517
same,glycan array binding signal (z-score),[12],-0.533
same,glycan array binding signal (z-score),[13],0.361
same,glycan array binding signal (z-score),[14],0.224
same,glycan array binding signal (z-score),[15],0.99
same,glycan array binding signal (z-score),[16],-0.308
same,glycan array binding signal (z-score),[17],1.08
same,glycan array binding signal (z-score),[18],-0.141
same,glycan array binding signal (z-score),[19],0.547
same,glycan array binding signal (z-score),[20],-0.188
same,glycan array binding signal (z-score),[21],0.105
same,glycan array binding signal (z-score),[22],-0.941
same,glycan array binding signal (z-score),[23],-0.204
same,glycan array binding signal (z-score),[24],1.82
same,glycan array binding signal (z-score),[25],-0.476
same,glycan array binding signal (z-score),[26],0.257
same,glycan array binding signal (z-score),[27],-1.07
same,glycan array binding signal (z-score),[28],-0.525
same,glycan array binding signal (z-score),[29],-0.213
same,glycan array binding signal (z-score),[30],-0.6
same,glycan array binding signal (z-score),[31],-0.172
same,glycan array binding signal (z-score),[32],-0.65
same,glycan array binding signal (z-score),[33],-0.615
same,glycan array binding signal (z-score),[34],0.667
same,glycan array binding signal (z-score),[35],-0.047
same,glycan array binding signal (z-score),[36],-0.392
same,glycan array binding signal (z-score),[37],0.416
same,glycan array binding signal (z-score),[38],1.63
same,glycan array binding signal (z-score),[39],0.211
same,glycan array binding signal (z-score),[40],1.06
same,glycan array binding signal (z-score),[41],-0.025
same,glycan array binding signal (z-score),[42],0.397
same,glycan array binding signal (z-score),[43],0.136
same,glycan array binding signal (z-score),[44],-0.373
same,glycan array binding signal (z-score),[45],0.615

# Three records drawn at random from those above, as already listed:
binder,measurement,setting,value
"CD34 (Homo sapiens), P28906 (protein) MGSSHHHHHHSSGLVPRGSHMSTSLATSPTKPYTSSSPILSDIKAEIKCSGIREVKLTQGICLEQNKTSSCAEFKKDRGEGLARVLCGEEQADADAGAQVCSLLLAQSEVRPQCLLLVLANRTEISSKLQLMKKHQSDLKKLGILDFTEQDVASHQSYSQKT",glycan array binding signal (z-score),[23],-0.204
same,glycan array binding signal (z-score),[38],1.63
same,glycan array binding signal (z-score),[3],-0.078
